Experimental data: article PMC12686931
Read-outs that look alike come from different tables or passages of the source. Results are given in words; binding and its absence hold for the method and conditions named. Binding seen in cells or lysates may run through a third protein. These calls come from enrichment with a bait or labelling near it, and not all partners need be listed. One block for each molecule: values may come before it.

Chains of the proteins cited; added tags and fusions are not shown.
UniProt O00571: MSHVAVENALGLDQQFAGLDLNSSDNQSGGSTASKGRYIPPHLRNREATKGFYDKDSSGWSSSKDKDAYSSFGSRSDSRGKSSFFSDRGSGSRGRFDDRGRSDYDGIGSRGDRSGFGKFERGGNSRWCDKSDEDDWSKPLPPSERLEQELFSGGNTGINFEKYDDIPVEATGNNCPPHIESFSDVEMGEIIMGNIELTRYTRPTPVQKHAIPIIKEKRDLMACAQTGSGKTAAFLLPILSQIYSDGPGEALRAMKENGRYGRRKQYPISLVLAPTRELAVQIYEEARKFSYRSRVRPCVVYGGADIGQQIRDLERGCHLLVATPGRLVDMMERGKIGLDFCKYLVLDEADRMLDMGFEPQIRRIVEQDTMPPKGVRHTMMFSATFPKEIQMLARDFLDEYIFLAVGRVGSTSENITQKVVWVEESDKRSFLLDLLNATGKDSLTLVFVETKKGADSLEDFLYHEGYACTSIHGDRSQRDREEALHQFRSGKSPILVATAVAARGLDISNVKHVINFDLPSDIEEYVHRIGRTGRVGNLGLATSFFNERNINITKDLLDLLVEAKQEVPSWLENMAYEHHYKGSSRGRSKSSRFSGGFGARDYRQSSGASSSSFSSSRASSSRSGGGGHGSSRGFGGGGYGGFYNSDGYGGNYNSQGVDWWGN
UniProt Q62167: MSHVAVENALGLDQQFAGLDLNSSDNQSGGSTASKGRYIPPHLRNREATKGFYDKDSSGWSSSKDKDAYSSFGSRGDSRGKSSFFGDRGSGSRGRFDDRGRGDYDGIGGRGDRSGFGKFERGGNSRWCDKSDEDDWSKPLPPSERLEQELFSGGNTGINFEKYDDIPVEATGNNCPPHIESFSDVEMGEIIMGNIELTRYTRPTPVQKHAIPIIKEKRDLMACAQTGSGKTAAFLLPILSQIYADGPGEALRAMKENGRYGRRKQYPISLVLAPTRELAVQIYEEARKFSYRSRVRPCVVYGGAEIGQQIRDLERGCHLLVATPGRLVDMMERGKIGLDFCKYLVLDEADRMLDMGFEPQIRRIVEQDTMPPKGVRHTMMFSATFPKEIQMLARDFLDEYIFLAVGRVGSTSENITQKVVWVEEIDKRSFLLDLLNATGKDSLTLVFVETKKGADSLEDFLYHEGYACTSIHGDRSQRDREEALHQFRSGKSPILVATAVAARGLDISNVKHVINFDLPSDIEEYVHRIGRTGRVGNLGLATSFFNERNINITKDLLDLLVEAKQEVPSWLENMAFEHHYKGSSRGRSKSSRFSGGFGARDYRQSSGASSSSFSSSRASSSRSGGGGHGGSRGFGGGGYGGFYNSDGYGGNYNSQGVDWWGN

Columns and labels:
Assay in all cases: affinity purification with mass spectrometry; endogenous ZMYND8 immunoprecipitated from MDA-MB-231 and 4T1 cell lysates; SDS-PAGE, silver staining, LC-MS/MS
[1] = biological target: T1, Zinc finger MYND-type containing 8 (ZMYND8), endogenous, human (human (endogenous in MDA-MB-231)) (UniProt Q9ULU4)
T1 sequence: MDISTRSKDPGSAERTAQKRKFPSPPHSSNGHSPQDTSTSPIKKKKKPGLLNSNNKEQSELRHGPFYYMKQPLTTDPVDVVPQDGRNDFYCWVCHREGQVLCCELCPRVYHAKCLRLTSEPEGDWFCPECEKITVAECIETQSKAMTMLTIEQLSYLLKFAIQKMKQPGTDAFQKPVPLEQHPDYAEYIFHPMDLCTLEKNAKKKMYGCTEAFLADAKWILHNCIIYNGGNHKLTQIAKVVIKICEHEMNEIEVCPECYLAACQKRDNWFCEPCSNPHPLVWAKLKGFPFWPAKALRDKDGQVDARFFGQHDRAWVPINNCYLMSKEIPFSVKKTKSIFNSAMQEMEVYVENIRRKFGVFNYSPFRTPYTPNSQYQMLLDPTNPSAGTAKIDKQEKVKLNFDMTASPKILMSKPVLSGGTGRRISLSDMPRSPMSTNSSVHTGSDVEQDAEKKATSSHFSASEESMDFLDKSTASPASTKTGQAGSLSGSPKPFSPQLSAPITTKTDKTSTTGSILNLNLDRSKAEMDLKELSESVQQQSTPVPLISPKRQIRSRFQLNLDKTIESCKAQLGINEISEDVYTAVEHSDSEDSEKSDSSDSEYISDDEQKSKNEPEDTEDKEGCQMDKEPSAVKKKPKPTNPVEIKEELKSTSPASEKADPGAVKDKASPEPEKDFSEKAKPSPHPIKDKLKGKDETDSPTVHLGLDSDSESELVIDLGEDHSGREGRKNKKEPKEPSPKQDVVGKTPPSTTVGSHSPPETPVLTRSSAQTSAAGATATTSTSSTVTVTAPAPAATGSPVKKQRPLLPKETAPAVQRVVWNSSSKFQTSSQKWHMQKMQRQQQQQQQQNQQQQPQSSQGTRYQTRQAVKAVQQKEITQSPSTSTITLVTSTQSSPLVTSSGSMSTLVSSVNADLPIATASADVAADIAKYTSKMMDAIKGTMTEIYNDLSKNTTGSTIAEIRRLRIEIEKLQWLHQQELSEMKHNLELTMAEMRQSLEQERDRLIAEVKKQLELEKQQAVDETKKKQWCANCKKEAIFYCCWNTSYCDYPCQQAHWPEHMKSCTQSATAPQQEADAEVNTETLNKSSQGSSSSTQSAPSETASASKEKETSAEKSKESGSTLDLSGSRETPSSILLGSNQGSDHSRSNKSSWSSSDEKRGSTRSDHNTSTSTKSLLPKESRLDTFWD

[2] = biological target: T2, Zinc finger MYND-type containing 8 (ZMYND8), endogenous, mouse (mouse (endogenous in 4T1)) (UniProt A2A484)
T2 sequence: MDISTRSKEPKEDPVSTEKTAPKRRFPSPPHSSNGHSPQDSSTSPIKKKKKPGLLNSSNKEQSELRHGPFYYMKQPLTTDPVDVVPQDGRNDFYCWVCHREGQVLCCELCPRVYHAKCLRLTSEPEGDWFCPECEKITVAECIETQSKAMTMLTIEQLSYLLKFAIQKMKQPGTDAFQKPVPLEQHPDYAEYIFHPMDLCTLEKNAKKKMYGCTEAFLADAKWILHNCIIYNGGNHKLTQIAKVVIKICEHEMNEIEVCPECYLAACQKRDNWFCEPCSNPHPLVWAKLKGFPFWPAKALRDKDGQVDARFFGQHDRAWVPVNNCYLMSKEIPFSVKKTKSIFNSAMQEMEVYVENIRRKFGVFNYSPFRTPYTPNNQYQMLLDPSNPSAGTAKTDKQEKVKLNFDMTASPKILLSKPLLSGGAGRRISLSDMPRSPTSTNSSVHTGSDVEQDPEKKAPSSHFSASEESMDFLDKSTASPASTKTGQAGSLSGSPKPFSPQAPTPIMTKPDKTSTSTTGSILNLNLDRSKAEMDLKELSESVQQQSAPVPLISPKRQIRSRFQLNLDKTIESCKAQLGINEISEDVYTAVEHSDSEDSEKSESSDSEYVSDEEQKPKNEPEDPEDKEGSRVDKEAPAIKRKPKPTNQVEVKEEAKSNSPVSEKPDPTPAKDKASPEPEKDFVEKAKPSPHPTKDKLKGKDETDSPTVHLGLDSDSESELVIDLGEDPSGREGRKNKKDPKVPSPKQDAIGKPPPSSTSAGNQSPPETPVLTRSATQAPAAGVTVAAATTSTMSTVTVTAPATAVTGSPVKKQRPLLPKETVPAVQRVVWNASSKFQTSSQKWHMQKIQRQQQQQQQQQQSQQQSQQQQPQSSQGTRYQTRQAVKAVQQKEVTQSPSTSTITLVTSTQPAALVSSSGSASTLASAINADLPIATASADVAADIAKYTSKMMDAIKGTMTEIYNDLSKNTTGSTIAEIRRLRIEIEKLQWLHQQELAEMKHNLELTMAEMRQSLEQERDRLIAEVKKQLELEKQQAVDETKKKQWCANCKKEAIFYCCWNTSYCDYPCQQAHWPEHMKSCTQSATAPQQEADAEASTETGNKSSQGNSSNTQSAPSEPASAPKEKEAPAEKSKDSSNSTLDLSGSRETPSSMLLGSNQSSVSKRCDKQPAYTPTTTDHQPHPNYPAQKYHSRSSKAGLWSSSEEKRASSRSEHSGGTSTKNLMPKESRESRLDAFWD

[3] = biological target: T2, Zinc finger MYND-type containing 8 (ZMYND8), endogenous, mouse (mouse (endogenous in 4T1)); remark: listed apart in the source

binding [1]: binds
Molecule: DEAD-box helicase 3 X-linked (DDX3X), endogenous, human (from UniProt O00571 1-662)

binding [2]: binds
Molecule: DEAD-box helicase 3 X-linked (DDX3X), endogenous, mouse (from UniProt Q62167 1-662)

binding [3]: binds
B1: OTU domain-containing protein 4 (OTUD4), endogenous, mouse (enzyme, UniProt B2RRE7 1-1107)
chain: MEAAVGAPDGVDQGGVGPLEDETPMDAYLRKLGLYRKLVAKDGSCLFRAVAEQVLHSQSRHVEVRMACIRYLRENREKFEAFIEGSFEEYLKRLENPQEWVGQVEISALSLMYRKDFVIYQEPNVSPSHVTENNFPEKVLLCFSNGNHYDIVYPITYKDSSAMCQSLLYELLYEKVFKTDVSKIMMGLEASEVAEESNSEISDSEDDSCKSKSTAATDVNGFKPSGSENPKNNGNSADLPLSRKVLKSLNPAVYRNVEYEIWLKSKQAQQKRDYSIAAGLQYEVGDKCHQVRLDHNGKLSNADIHGVHSENGLVLSEELGKKHTPKNLKPPPPESWNTVSGKKMKKPNSGQNFHSDTDYRGPKNLNKPIKAPSALPPRLQHPSSGVRQHAFSSHSTGSQSQKSSSEHKNLSRMPSQITRKPDRERAEDFDHVSRESYYFGLSPEERREKQAIEESRLLYEIQNRDEQAFPALSSSSVSQSPSQNSNACVPRKSSHARDRKGSMRRADAEERKDKDSLRGHTHVDKKPEPSTLEISDDKCTRVSSPSKSKKECPSPVEQKPAEHIPLSNPAPLLVSPEVHLTPAVPSLPATVPAWPSEPTTFGPTGVPAQIPILSVTQTTGPDAAVSQAHLTPSPVPVSIQAVNQPLMPLPQTMSLYQDPLYPGFPCSEKGDRAIAPPYSLCQTGEDLPKDKNILRFFFNLGVKAYSCPMWAPHSYLYPLHQAYMAACRMYPKVPVPVYPQNTWFQEAPPAQSESDCPCTDAHYSLHPEASVNGQMPQAEMGPPAFASPLVIPPSQVSEGHGQLSYQPELESENPGQLLHAEYEESLSGKNMYPQQSFGPNPFLGPVPIAPPFFPHVWYGYPFQGFVENPVMRQNIVLPPDDKGELDLPLENLDLSKECDSVSAVDEFPDARVEGAHSLSAASVSSKHEGRVEQSSQTRKADIDLASGSSAVEGKGHPPTQILNREREPGSAEPEPKRTIQSLKEKPEKVKDPKTAADVVSPGANSVDRLQRPKEESSEDENEVSNILRSGRSKQFYNQTYGSRKYKSDWGSSGRGGYQHVRGEESWKGQPNRSRDEGYQYHRHVRGRPYRGDRRRSGMGDGHRGQHT
